# PubChem BioAssay AID504786, Drosophila RNAi Screening Center, 2011
# Purpose: 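Knock-downs reducing HIF reporter induction by the iron chelator DFO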 (primary screen)
# Cell system: Drosophila S2 cells with a stable HIF luciferase reporter
# Reagent: long dsRNA against Drosophila genes, about 0.2 µg dsRNA per well of a 384-well plate
# Time to read-out: three days of knock-down, then 20 h of DFO before reading
# Treatment: desferrioxamine (DFO) at 100 µM, an iron chelator that mimics hypoxia, for 20 h
# Measured: 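Firefly luciferase driven by the mouse ldh-a hypoxia-response element, measured after 20 h of 100 µM DFO; z-scores per plate, higher means more signal lost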
# Direction: z-score: higher = stronger loss of HIF reporter signal
# The screen tested about 21,000 reagents; this is an unselected part of those that have a named target and a result. 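Primary screen; positive scores mean lost reporter signal, so the sign may be inverted from the usual convention.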 Names joined by + are all predicted targets of the reagent. Further read-outs or replicates are left out here.
target,dsRNA,"z-score, replicate 1"
knk,DRSC15993,-0.3
corn,DRSC11021,-0.3
CG14085,DRSC10089,-0.3
Tsen34 + Trl,DRSC10014,-0.1
CG4660,DRSC18378,-0.3
CG12929,DRSC06242,-0.3
CG9586,DRSC03270,-0.3
CG17294,DRSC02596,-0.1
CG15025,DRSC15031,-0.5
veg (retired record),DRSC07714,-0.2
Lpin,DRSC07241,-0.3
Mur29B,DRSC01018,0
Mur29B,DRSC02376,-0.2
CG11362,DRSC04106,-0.4
CR18228,DRSC15317,0.1
CG5188,DRSC02826,-0.1
RhoGEF4,DRSC11011,-0.3
CG16710,DRSC15136,0.1
CG13385,DRSC02259,-0.4
mEFTu2,DRSC06163,0.1
CG11590,DRSC19411,-0.4
Eig71Ef,DRSC11153,-0.2
Lcp65Ad,DRSC11211,-0.4
Ets96B,DRSC16127,0.3
AhcyL2,DRSC14107,-0.4
TAF1B,DRSC16001,-0.4
Ppm1,DRSC08260,-0.4
CG33635,DRSC00006,1.4
bcd + CR14578,DRSC20984,-0.8
l(3)05822,DRSC16202,-0.3
CG34047 (retired record),DRSC07857,-0.5
lncRNA:bxd,DRSC13176,-0.2
sra,DRSC17015,-0.2
ord,DRSC04706,-0.2
AnxB10,DRSC20677,-0.3
Odc2,DRSC07483,0
CG2901,DRSC18239,-0.2
CG33281,DRSC00421,-0.3
EbpII,DRSC04637,-0.2
Pex12,DRSC00622,1
CG11858,DRSC14412,-0.5
ppl,DRSC11899,-0.1
Wnt2,DRSC05160,0.1
Wnt2,DRSC07574,-0.3
sima,DRSC17055,5.8
CG11630,DRSC03696,-0.3
CG12517,DRSC02173,-0.1
CG31639,DRSC00910,-0.5
phol,DRSC10367,-0.5
CG4927,DRSC06903,-0.3
CG8778,DRSC07264,-0.3
lncRNA:CR32661,DRSC19794,0
CG30075,DRSC05484,-0.2
CG15547,DRSC15085,0.2
CG8219,DRSC10971,-0.4
Mtap,DRSC06890,0
Hsf,DRSC07443,-0.2
CG33110,DRSC14694,3.5
CG33110,DRSC16137,0.1
CG10062,DRSC05960,-0.2
CG34370,DRSC03913,-0.6
CG34370,DRSC04142,-0.2
CG34370,DRSC04143,-0.3
CG34370,DRSC04144,-0.2
Tsf3,DRSC06849,-0.3
CG5608,DRSC15841,0
CG12531,DRSC19466,-0.2
bgcn,DRSC04062,-0.3
bgcn,DRSC04063,-0.4
CHKov2,DRSC14262,-0.3
Dcr-1,DRSC15646,-0.3
Twdlbeta,DRSC07310,-0.4
CG9072,DRSC20147,-0.3
CG5506,DRSC10511,-0.3
CG31231,DRSC13308,-0.4
Tsp74F,DRSC10508,-0.3
CG5050,DRSC02807,-0.3
CG3703,DRSC18172,-0.4
CG3703,DRSC18173,-0.2
CG3703,DRSC18643,-0.2
mbf1,DRSC11365,-0.2
Ir48a,DRSC05301,-0.1
Spn28B,DRSC02982,-0.2
